{"source": "patent US20240215910A1", "about": "“A METHOD FOR […] PRO-OR ANTI […] TEST COMPOUNDS” (GW Research Limited, priority 2020, published 2024)", "key": {"[1]": {"test_system": "tonic hind limb extensor convulsion from a single electroshock", "test": "mini-MEST: maximal electroshock seizure threshold test using minimal sample sizes (n=6/group, log-scale current steps)", "conditions": "30 min post dose", "excerpt": "(§1) All animals were weighed at the beginning of the study and assigned to treatment groups (n=6/group) based on a mean distribution of body weight across groups.\n(§2) The first animal within a treatment group was given a shock at the expected or estimated CC50 current. For subsequent animals, the current was lowered or raised depending on the convulsion outcome from the preceding animal in log scale intervals. Data generated from each treatment group were used to calculate the CC50±SEM values for the treatment group (see Table 5 for details).\nas §1\nas §2, with “Table 10” for “Table 5”\nas §1\nas §2, with “Table 15” for “Table 5”"}, "[2]": {"test_system": "tonic hind limb extensor convulsion from a single electroshock; mouse model of generalised seizure", "test": "standard maximal electroshock seizure threshold (MEST) test (n=12/group, 5 mA intervals)", "conditions": "Example 4, 2.5 mg/kg i.p., 30 min post dose", "protocol": "The efficacy of Compound 3 was tested in a mouse model of generalised seizure, the maximal electroshock seizure threshold (MEST) test.\nAll animals were weighed at the beginning of the study and randomly assigned to treatment groups (n=12/group) based on a mean distribution of body weight across groups.\nThe first animal within a treatment group was given a shock at the expected or\nestimated CC50 current. For subsequent animals, the current was lowered or raised depending on the convulsions outcome from the preceding animal in 5 mA intervals.\nData generated from each treatment group were used to calculate the CC50±SEM values for the treatment group.\nThe data for each treatment group were recorded as the number of +'s and 0's at each current level employed and this information is then used to calculate the CC50 value (current required for 50% of the animals to show seizure behaviour)±standard error.\nTest compound effects were also calculated as percentage change in CC50 from the vehicle control group.\nSignificant difference between drug-treated animals and controls were assessed according to Litchfield and Wilcoxon (1949)."}}, "data": [{"smiles": "CN1C(=O)CN=C(c2ccccc2)c2cc(Cl)ccc21", "note": "[Diazepam, diazepam, reference compound]", "values": [{"measurement": "CC50 ± SEM", "setting": "[1]; Example 1, 2.5 mg/kg i.p., vehicle CC50 24.5", "result": 75.0, "unit": "mA"}, {"measurement": "CC50 ± SEM", "setting": "[1]; Example 1, 2.5 mg/kg i.p., vehicle CC50 24.5, listed as diazepam", "result": 75.0, "unit": "mA"}, {"measurement": "CC50 ± SEM", "setting": "[1]; Example 2, 2.5 mg/kg i.p., vehicle CC50 22.5", "result": "89.0 +/− 3.4 mA"}, {"measurement": "CC50 ± SEM", "setting": "[1]; Example 2, 2.5 mg/kg i.p., vehicle CC50 22.5, listed as diazepam", "result": 89.0, "unit": "mA"}, {"measurement": "CC50 ± SEM", "setting": "[1]; Example 3, 2.5 mg/kg i.p., vehicle CC50 23.5", "result": "46.5 +/− 1.0 mA"}, {"measurement": "CC50 ± SEM", "setting": "[1]; Example 3, 2.5 mg/kg i.p., vehicle CC50 23.5, listed as diazepam", "result": 46.5, "unit": "mA"}, {"measurement": "CC50 +/− SEM", "setting": "[2]; N=11, vehicle CC50 24.3", "result": "78.5 ± 1.0", "unit": "mA"}, {"measurement": "CC50 +/− SEM", "setting": "[2]; N=11, vehicle CC50 24.3, listed as diazepam", "result": 78.5, "unit": "mA"}]}]}
